# According to patent US11731941B2 (Exelixis, Inc., priority 2017, dated 2023):
# The name of at least one read-out is uncertain.
# Experiment: initial development experiments (BCS classification, solubility, permeability)
# Type: physicochemical
# Conditions: free base
compound,measurement,value
"COc1cc2nccc(Oc3ccc(NC(=O)C4(C(=O)Nc5ccc(F)cc5)CC4)cc3)c2cc1OC [Compound 1, N-{4-[(6,7-dimethoxyquinolin-4-yl)oxy]phenyl}-N′-(4-fluorophenyl) cyclopropane-1,1-dicarboxamide]",permeability,high permeability
